# Data reported in the supplement of paper PMC8728848.
# The list shows a part of the results.
# Assays:
# Assay in all cases: glycan array binding signal (z-score within array); higher = stronger binding
# Settings in all cases: glycan notation: IUPAC condensed, linker removed
# [1] = target: Neu5Ac(a2-3)Gal(b1-3)GalNAc
# Outline: (§1)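 Negative Z-scores can be read as non-binding. The Z-score is calculated within each array and then averaged across arrays of one protein sequence at different concentrations or buffers and across linkers. Arrays, 3228 in all, were curated from the Consortium for Functional Glycomics database and kept only where the protein sequence was available.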
# [2] = target: Neu5Ac(a2-3)Gal(b1-3)GalNAc(b1-3)Gal(a1-4)Gal(b1-4)Glc
# Outline: as §1
# [3] = target: Neu5Ac(a2-3)Gal(b1-3)GalNAc(b1-4)[Neu5Ac(a2-3)]Gal(b1-4)Glc
# Outline: as §1
# [4] = target: Neu5Ac(a2-3)Gal(b1-3)GalNAc(b1-4)[Neu5Ac(a2-8)Neu5Ac(a2-3)]Gal(b1-4)Glc
# Outline: as §1
# [5] = target: Neu5Ac(a2-3)Gal(b1-3)GalNAc6S
# Outline: as §1
# [6] = target: Neu5Ac(a2-3)Gal(b1-3)GlcNAc
# Outline: as §1
# [7] = target: Neu5Ac(a2-3)Gal(b1-3)GlcNAc(b1-2)Man
# Outline: as §1
# [8] = target: Neu5Ac(a2-3)Gal(b1-3)GlcNAc(b1-2)Man(a1-3)[GlcNAc(b1-4)][Neu5Ac(a2-3)Gal(b1-3)GlcNAc(b1-2)Man(a1-6)]Man(b1-4)GlcNAc(b1-4)GlcNAc
# Outline: as §1
# [9] = target: Neu5Ac(a2-3)Gal(b1-3)GlcNAc(b1-2)Man(a1-3)[Neu5Ac(a2-3)Gal(b1-3)GlcNAc(b1-2)Man(a1-6)]Man(b1-4)GlcNAc(b1-4)GlcNAc
# Outline: as §1
# [10] = target: Neu5Ac(a2-3)Gal(b1-3)GlcNAc(b1-3)Gal(b1-3)GlcNAc
# Outline: as §1
# [11] = target: Neu5Ac(a2-3)Gal(b1-3)GlcNAc(b1-3)Gal(b1-4)GlcNAc
# Outline: as §1
# [12] = target: Neu5Ac(a2-3)Gal(b1-3)GlcNAc(b1-3)GalNAc
# Outline: as §1
# [13] = target: Neu5Ac(a2-3)Gal(b1-3)GlcNAc(b1-4)Gal(b1-4)Glc
# Outline: as §1
# [14] = target: Neu5Ac(a2-3)Gal(b1-3)GlcNAc(b1-6)GalNAc
# Outline: as §1
# [15] = target: Neu5Ac(a2-3)Gal(b1-3)GlcNAc6S
# Outline: as §1
# [16] = target: Neu5Ac(a2-3)Gal(b1-3)[Fuc(a1-4)]GlcNAc
# Outline: as §1
# [17] = target: Neu5Ac(a2-3)Gal(b1-3)[Fuc(a1-4)]GlcNAc(b1-3)Gal(b1-3)[Fuc(a1-4)]GlcNAc
# Outline: as §1
# [18] = target: Neu5Ac(a2-3)Gal(b1-3)[Fuc(a1-4)]GlcNAc(b1-3)Gal(b1-4)[Fuc(a1-3)]GlcNAc
# Outline: as §1
# [19] = target: Neu5Ac(a2-3)Gal(b1-3)[GlcNAc(b1-6)]GalNAc
# Outline: as §1
# [20] = target: Neu5Ac(a2-3)Gal(b1-3)[Neu5Ac(a2-6)]GalNAc
# Outline: as §1
# [21] = target: Neu5Ac(a2-3)Gal(b1-3)[Neu5Ac(a2-6)]GlcNAc(b1-3)[Fuc(a1-3)[Gal(b1-4)]GlcNAc(b1-6)]Gal(b1-4)Glc
# Outline: as §1
# [22] = target: Neu5Ac(a2-3)Gal(b1-3)]Neu5Ac(a2-3)Gal(b1-4)]GlcNAc
# Outline: as §1
# Neu5Ac(a2-3)Gal(b1-4)Glc = target: Neu5Ac(a2-3)Gal(b1-4)Glc
# Outline: as §1
# [23] = target: Neu5Ac(a2-3)Gal(b1-4)GlcNAc
# Outline: as §1
# [24] = target: Neu5Ac(a2-3)Gal(b1-4)GlcNAc(b1-2)Man
# Outline: as §1
# [25] = target: Neu5Ac(a2-3)Gal(b1-4)GlcNAc(b1-2)Man(a1-3)[GlcNAc(b1-4)][Neu5Ac(a2-3)Gal(b1-4)GlcNAc(b1-2)Man(a1-6)]Man(b1-4)GlcNAc(b1-4)GlcNAc
# Outline: as §1
# [26] = target: Neu5Ac(a2-3)Gal(b1-4)GlcNAc(b1-2)Man(a1-3)[Neu5Ac(a2-3)Gal(b1-4)GlcNAc(b1-2)Man(a1-6)]Man(b1-4)GlcNAc(b1-4)GlcNAc
# Outline: as §1
# [27] = target: Neu5Ac(a2-3)Gal(b1-4)GlcNAc(b1-2)Man(a1-3)[Neu5Ac(a2-3)Gal(b1-4)GlcNAc(b1-2)Man(a1-6)]Man(b1-4)GlcNAc(b1-4)[Fuc(a1-6)]GlcNAc
# Outline: as §1
# [28] = target: Neu5Ac(a2-3)Gal(b1-4)GlcNAc(b1-2)Man(a1-3)[Neu5Ac(a2-6)Gal(b1-4)GlcNAc(b1-2)Man(a1-6)]Man(b1-4)GlcNAc(b1-4)GlcNAc
# Outline: as §1
# [29] = target: Neu5Ac(a2-3)Gal(b1-4)GlcNAc(b1-2)[Neu5Ac(a2-3)Gal(b1-4)GlcNAc(b1-4)]Man(a1-3)[GlcNAc(b1-4)][Neu5Ac(a2-3)Gal(b1-4)GlcNAc(b1-2)[Neu5Ac(a2-3)Gal(b1-4)GlcNAc(b1-6)]Man(a1-6)]Man(b1-4)GlcNAc(b1-4)GlcNAc
# Outline: as §1
# [30] = target: Neu5Ac(a2-3)Gal(b1-4)GlcNAc(b1-2)[Neu5Ac(a2-3)Gal(b1-4)GlcNAc(b1-4)]Man(a1-3)[GlcNAc(b1-4)][Neu5Ac(a2-3)Gal(b1-4)GlcNAc(b1-4)Man(a1-6)]Man(b1-4)GlcNAc(b1-4)GlcNAc
# Outline: as §1
# [31] = target: Neu5Ac(a2-3)Gal(b1-4)GlcNAc(b1-2)[Neu5Ac(a2-3)Gal(b1-4)GlcNAc(b1-6)]Man(a1-6)[Neu5Ac(a2-3)Gal(b1-4)GlcNAc(b1-2)Man(a1-3)]Man(b1-4)GlcNAc(b1-4)GlcNAc
# Outline: as §1
# [32] = target: Neu5Ac(a2-3)Gal(b1-4)GlcNAc(b1-2)[Neu5Ac(a2-3)Gal(b1-4)GlcNAc(b1-6)]Man(a1-6)[Neu5Ac(a2-3)Gal(b1-4)GlcNAc(b1-2)Man(a1-3)][GlcNAc(b1-4)]Man(b1-4)GlcNAc(b1-4)GlcNAc
# Outline: as §1
# [33] = target: Neu5Ac(a2-3)Gal(b1-4)GlcNAc(b1-3)Gal
# Outline: as §1
# [34] = target: Neu5Ac(a2-3)Gal(b1-4)GlcNAc(b1-3)Gal(b1-3)GlcNAc
# Outline: as §1
# [35] = target: Neu5Ac(a2-3)Gal(b1-4)GlcNAc(b1-3)Gal(b1-4)GlcNAc
# Outline: as §1
# [36] = target: Neu5Ac(a2-3)Gal(b1-4)GlcNAc(b1-3)Gal(b1-4)GlcNAc(b1-2)Man(a1-3)[Neu5Ac(a2-3)Gal(b1-4)GlcNAc(b1-3)Gal(b1-4)GlcNAc(b1-2)Man(a1-6)]Man(b1-4)GlcNAc(b1-4)GlcNAc
# Outline: as §1
# [37] = target: Neu5Ac(a2-3)Gal(b1-4)GlcNAc(b1-3)Gal(b1-4)GlcNAc(b1-3)Gal(b1-4)GlcNAc
# Outline: as §1
# [38] = target: Neu5Ac(a2-3)Gal(b1-4)GlcNAc(b1-3)Gal(b1-4)GlcNAc(b1-3)Gal(b1-4)GlcNAc(b1-2)Man(a1-3)[Neu5Ac(a2-3)Gal(b1-4)GlcNAc(b1-3)Gal(b1-4)GlcNAc(b1-3)Gal(b1-4)GlcNAc(b1-2)Man(a1-6)]GalNAc
# Outline: as §1
# [39] = target: Neu5Ac(a2-3)Gal(b1-4)GlcNAc(b1-3)Gal(b1-4)GlcNAc(b1-3)GalNAc
# Outline: as §1
# [40] = target: Neu5Ac(a2-3)Gal(b1-4)GlcNAc(b1-3)Gal(b1-4)GlcNAc(b1-3)[Neu5Ac(a2-3)Gal(b1-4)GlcNAc(b1-3)Gal(b1-4)GlcNAc(b1-6)]GalNAc
# Outline: as §1
# [41] = target: Neu5Ac(a2-3)Gal(b1-4)GlcNAc(b1-3)Gal(b1-4)GlcNAc(b1-6)[Gal(b1-3)]GalNAc
# Outline: as §1
# [42] = target: Neu5Ac(a2-3)Gal(b1-4)GlcNAc(b1-3)Gal(b1-4)[Fuc(a1-3)]GlcNAc
# Outline: as §1
# [43] = target: Neu5Ac(a2-3)Gal(b1-4)GlcNAc(b1-3)GalNAc
# Outline: as §1
# [44] = target: Neu5Ac(a2-3)Gal(b1-4)GlcNAc(b1-3)[Neu5Ac(a2-3)Gal(b1-4)GlcNAc(b1-6)]GalNAc
# Outline: as §1
binder,measurement,setting,value
PX14375D-bvu-513-34-513 (Bacteroides vulgatus) (protein) TEDTFWKDETDFNLALTSCYTPLKNALNGGYYGTRGVMLRIARADEVDFRNDISDVYTVNRFTNSNTNSLTQGMFYQFYNALYRTNSIMQKLEEKKEQFSTDFQNSVKGECLFIRGFYLFQLAKEFKDAPLRLTASQSPSTFPLAKSSQADIWAQAKEDLKTAASLLPITNKIGKPTQGAAYAALGKIYVYEENWQEAINVLEPLTQNPYTYKLVEDFNWNFDDTHENNAESIFELLIEDVGGTDLWGDGENINSTQSNTRPKEYAAAEVGGWYEANPTQQIMDIFWKEKDKDGNFDYRARCSVAWDYEGCTYYQRPFREVFAQDKWKTYWILKYQNWKTQKDEPAPPKSFINERAIRYADVLLMLAEAYMNKGALDTSIGYINQIRRRANLNDYSGPITKEGVFEDLVHQRAIEFFVEGERFYDLRRWGLLEQTLKTCDDTRYKNYQTGKSDNINKFNYFPIPAKELDTNPLCTPSEGW,glycan array binding signal (z-score),[1],-0.026
same,glycan array binding signal (z-score),[2],0.596
same,glycan array binding signal (z-score),[3],0.28
same,glycan array binding signal (z-score),[4],-0.651
same,glycan array binding signal (z-score),[5],1.03
same,glycan array binding signal (z-score),[6],-0.373
same,glycan array binding signal (z-score),[7],-0.133
same,glycan array binding signal (z-score),[8],0.071
same,glycan array binding signal (z-score),[9],0.513
same,glycan array binding signal (z-score),[10],-0.066
same,glycan array binding signal (z-score),[11],0.172
same,glycan array binding signal (z-score),[12],-0.439
same,glycan array binding signal (z-score),[13],-0.949
same,glycan array binding signal (z-score),[14],-0.432
same,glycan array binding signal (z-score),[15],0.049
same,glycan array binding signal (z-score),[16],1.67
same,glycan array binding signal (z-score),[17],-0.148
same,glycan array binding signal (z-score),[18],-0.122
same,glycan array binding signal (z-score),[19],-0.36
same,glycan array binding signal (z-score),[20],0.074
same,glycan array binding signal (z-score),[21],-0.948
same,glycan array binding signal (z-score),[22],-0.374
same,glycan array binding signal (z-score),Neu5Ac(a2-3)Gal(b1-4)Glc,0.228
same,glycan array binding signal (z-score),[23],-0.226
same,glycan array binding signal (z-score),[24],1.02
same,glycan array binding signal (z-score),[25],-0.161
same,glycan array binding signal (z-score),[26],-0.82
same,glycan array binding signal (z-score),[27],-0.211
same,glycan array binding signal (z-score),[28],-0.548
same,glycan array binding signal (z-score),[29],-0.572
same,glycan array binding signal (z-score),[30],0.054
same,glycan array binding signal (z-score),[31],0.472
same,glycan array binding signal (z-score),[32],-0.238
same,glycan array binding signal (z-score),[33],0.161
same,glycan array binding signal (z-score),[34],0.281
same,glycan array binding signal (z-score),[35],-0.058
same,glycan array binding signal (z-score),[36],0.724
same,glycan array binding signal (z-score),[37],-0.749
same,glycan array binding signal (z-score),[38],0.997
same,glycan array binding signal (z-score),[39],-0.075
same,glycan array binding signal (z-score),[40],0.197
same,glycan array binding signal (z-score),[41],-0.099
same,glycan array binding signal (z-score),[42],-0.682
same,glycan array binding signal (z-score),[43],-0.347
same,glycan array binding signal (z-score),[44],0.547

# Random excerpt: three entries already listed
binder,measurement,setting,value
PX14375D-bvu-513-34-513 (Bacteroides vulgatus) (protein) TEDTFWKDETDFNLALTSCYTPLKNALNGGYYGTRGVMLRIARADEVDFRNDISDVYTVNRFTNSNTNSLTQGMFYQFYNALYRTNSIMQKLEEKKEQFSTDFQNSVKGECLFIRGFYLFQLAKEFKDAPLRLTASQSPSTFPLAKSSQADIWAQAKEDLKTAASLLPITNKIGKPTQGAAYAALGKIYVYEENWQEAINVLEPLTQNPYTYKLVEDFNWNFDDTHENNAESIFELLIEDVGGTDLWGDGENINSTQSNTRPKEYAAAEVGGWYEANPTQQIMDIFWKEKDKDGNFDYRARCSVAWDYEGCTYYQRPFREVFAQDKWKTYWILKYQNWKTQKDEPAPPKSFINERAIRYADVLLMLAEAYMNKGALDTSIGYINQIRRRANLNDYSGPITKEGVFEDLVHQRAIEFFVEGERFYDLRRWGLLEQTLKTCDDTRYKNYQTGKSDNINKFNYFPIPAKELDTNPLCTPSEGW,glycan array binding signal (z-score),[23],-0.226
same,glycan array binding signal (z-score),[25],-0.161
same,glycan array binding signal (z-score),[14],-0.432
